Data on 42 sequences can be found in paper PMC7819943, “Rice protein-binding microarrays: a tool to detect cis-acting elements near promoter regions in rice”.

By UniProt entry, the sequences of proteins in these tests, tags left out.
UniProt Q0JBA9, entry or part of it: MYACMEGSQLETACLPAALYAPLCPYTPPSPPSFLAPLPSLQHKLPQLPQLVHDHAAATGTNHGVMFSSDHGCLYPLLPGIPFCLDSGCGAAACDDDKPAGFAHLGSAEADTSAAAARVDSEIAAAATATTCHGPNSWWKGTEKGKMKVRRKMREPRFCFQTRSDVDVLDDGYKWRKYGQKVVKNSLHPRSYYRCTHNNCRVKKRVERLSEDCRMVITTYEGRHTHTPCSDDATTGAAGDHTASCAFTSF

Some of the results follow.

The test has as its target OsWRKY34 (Oryza sativa, UniProt Q0JBA9 1-250). Briefly: protein-binding microarray (RPBM); PBS, 2% BSA, 51.3 ng/ul salmon testes DNA, 50 uM zinc acetate, 200 nM TF, 25 C, 1 h; high values mean tight binding. The conditions noted are these: protein: recombinant; tags: N-terminal polyhistidine and DsRed monomer fusion (pET32a); label: CyDye5-dUTP incorporated in the synthesized complementary strand; 3' TTTTT single-stranded linker to array surface; dsDNA, one strand shown. A digest of the protocol: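 The binding signal is fluorescence intensity per array feature (arbitrary units). Readings came from an Axon 4000B scanner after a washed, 2% BSA-blocked, double-stranded custom Agilent array had been incubated for 1 h at 25 °C with 200 nM protein and 50 µM zinc acetate. The protein was a Ni–NTA-purified transcription factor fused N-terminally to polyhistidine and DsRed, expressed in E. coli BL21-CodonPlus.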
In the case of “TTGATCTGCCGGCATGGTACTGCGTGAGAGGGGCGACGAACGGAGTCACCTAGTGCAG”, the binding signal was 9250 fluorescence intensity (a.u.).
To “CAAATCAGTCCATTCTCACATCACCACTCACCAACCCGAACGGAGTCACCTAGTGCAG” belongs 11800 fluorescence intensity (a.u.); to “ATTGGTGGTAATCGGAGGTGGAGGTGGGCGTGATGATCTCCGGAGTCACCTAGTGCAG”, 11100 fluorescence intensity (a.u.); to “GGTGACACTTGTGCTATTAAACTGAAGCCTTTTTTTTTCTCGGAGTCACCTAGTGCAG”, 8460 fluorescence intensity (a.u.).
Turning to “CGAGGCTGGGGAGGGGAGGAGAAAGGCGGGGACGGCGCGGCGGAGTCACCTAGTGCAG”, the binding signal was 12600 fluorescence intensity (a.u.).
As for “CCGGCAAAAGTCTCTCCATCTTGTCATCGTCTTCTCCAGCCGGAGTCACCTAGTGCAG”, the binding signal is 8410 fluorescence intensity (a.u.).
Next, “CGTTCTTGCTGTACATTTTTCGGCTTTAAAATATTTCGTTCGGAGTCACCTAGTGCAG”: 10400 fluorescence intensity (a.u.).
To “TCAACTCCACACTCCGGCGCCGCACCCATCTCGTCCAGTCCGGAGTCACCTAGTGCAG” belongs 9370 fluorescence intensity (a.u.); to “TTGCGCTTCGTCGACAGTTTCGCGGCCACGTTGTCCAAGGCGGAGTCACCTAGTGCAG”, 8410 fluorescence intensity (a.u.); to “TTCTTTTTATATTTTCTTTTGTTGGTTTTTTTCGTCTCAACGGAGTCACCTAGTGCAG”, 13200 fluorescence intensity (a.u.).
Next, “TTCAGTATTCCTAGTGTTGTTAACTATAAGTTACTGACATCGGAGTCACCTAGTGCAG”: 8390 fluorescence intensity (a.u.); “TTCCATTATACCACTGGTTCGGCTAAATCGCCGGCAACCACGGAGTCACCTAGTGCAG”: 10500 fluorescence intensity (a.u.).
In the case of “GATATTCTAGTTACCACTTAATTAGCAGCCCTGATATTTGCGGAGTCACCTAGTGCAG”, the binding signal was 8670 fluorescence intensity (a.u.).
To “TAAGAGTTATTCATGATTTATATTTCCAATGTTTGACTTACGGAGTCACCTAGTGCAG” belongs 8210 fluorescence intensity (a.u.).
Next, “TGTATTGGGTTGGGCTAAATTGAGTGACTTAGGAATTACGCGGAGTCACCTAGTGCAG”: 9910 fluorescence intensity (a.u.); “ATGGTGGCTGAAGGGGTTGGATTGGATGAGGTGACATATACGGAGTCACCTAGTGCAG”: 13200 fluorescence intensity (a.u.).
Turning to “ATCTTCACAACCGTCGGCATCCAATCTTTATTCCTTACTTCGGAGTCACCTAGTGCAG”, the binding signal was 8320 fluorescence intensity (a.u.).
Next, “CGCTTGTGGAGCGGTTGGGTGGGTGGTGATTCTTCTTGGCCGGAGTCACCTAGTGCAG”: 8290 fluorescence intensity (a.u.).
To “TACAACGTTGACCGAAAGTCGTGGCTTTTTACCGGTTTTCCGGAGTCACCTAGTGCAG” belongs 13700 fluorescence intensity (a.u.).
As to “TTTTGTGTTTCTTGAGGTGTTTCTTTGTGGCCTTCTCGTCCGGAGTCACCTAGTGCAG”, the binding signal was 8500 fluorescence intensity (a.u.).
Consider “AATATCAATTTGTTGCAACATTAGCGGCATGTTTTAGTTTCGGAGTCACCTAGTGCAG”, for which the binding signal is 8370 fluorescence intensity (a.u.).
For the sequence “CACCTTGTCATTGGCCAATCCTTCGCGTACGGCCCGCGAGCGGAGTCACCTAGTGCAG”, the binding signal was 12000 fluorescence intensity (a.u.).
Next, “CTCCCTTGTAGCACATATCTGATGCATATTCGATCAAACGCGGAGTCACCTAGTGCAG”: 10700 fluorescence intensity (a.u.).
Next, “CAATCTTTATCCCGTCATCCACCTCATTGTTCTTACCCAACGGAGTCACCTAGTGCAG”: 8260 fluorescence intensity (a.u.).
For “TAATCATCTCTCGTTCACACATTTCCATCGAAAGTATCCCCGGAGTCACCTAGTGCAG”, the binding signal was 9630 fluorescence intensity (a.u.).
To “ATTAGGGATAACCGTCACTGTTTGTTGCTGTTTTTATGTTCGGAGTCACCTAGTGCAG” belongs 9960 fluorescence intensity (a.u.); to “TCATCTCGTATCGCCGCGCTCCTCCTTTCGCTCGCCTGCTCGGAGTCACCTAGTGCAG”, 8690 fluorescence intensity (a.u.); to “TTCAATTCATGTGTGCCAAGTTAACGCAATATAAACTATACGGAGTCACCTAGTGCAG”, 8580 fluorescence intensity (a.u.).
Consider “AGCACCAGTTCATCGAACACTTATCTTTTTCGACCCTTAGCGGAGTCACCTAGTGCAG”, for which the binding signal was 8280 fluorescence intensity (a.u.).
To “GAGGTCCACAAACAGACGCTAAACCACCTCAACCACAATTCGGAGTCACCTAGTGCAG” belongs 11400 fluorescence intensity (a.u.).
To “GCTACACATTCCAAATAACTACCTTACCCAACCCAAGTCCCGGAGTCACCTAGTGCAG” belongs 8720 fluorescence intensity (a.u.); to “TACTCCCTCAAATATAGCAACCTTGTACCTCTGTCCAGATCGGAGTCACCTAGTGCAG”, 8590 fluorescence intensity (a.u.); to “CTCTCTCCCAACAACACTGCGCCACAGACACAAATCACACCGGAGTCACCTAGTGCAG”, 8630 fluorescence intensity (a.u.).
On to “TGATTCAACTCCGTACATTCTGAGTTCATCCTTTTAATTACGGAGTCACCTAGTGCAG”, for which the binding signal was 8280 fluorescence intensity (a.u.).
On to “AACAGCATAATGATTCATATCTTATACGACTTTGGTTGACCGGAGTCACCTAGTGCAG”, for which the binding signal is 9010 fluorescence intensity (a.u.).
For the sequence “TCCGTTTTCTCACTAGGAGCTGGTGTCCTCGCGGTCCTTACGGAGTCACCTAGTGCAG”, the binding signal is 11300 fluorescence intensity (a.u.).
To “GCTGAGACTGTAACCCAACTCAATGTTTCCGTTCCGTTAGCGGAGTCACCTAGTGCAG” belongs 8080 fluorescence intensity (a.u.).
Next, “TCCTCCCTCACGTCGTCGCCATTACGCCTGACACGCTCCACGGAGTCACCTAGTGCAG”: 8790 fluorescence intensity (a.u.); “GAGAGAGGGGTTGGGTTTGGTTGGTGTTTGTGTGGAGATGCGGAGTCACCTAGTGCAG”: 12800 fluorescence intensity (a.u.).
As for “ACTGTTCGTTTTTCCACTTAAGTTCTGCTTGGTTTTTTTTCGGAGTCACCTAGTGCAG”, the binding signal is 16600 fluorescence intensity (a.u.).
To “AATCAACTCGTGTGAAAGTTCTATAAATATTTGGGTGGGGCGGAGTCACCTAGTGCAG” belongs 9880 fluorescence intensity (a.u.).
Consider “TACGTACCGCGCCATCTCTCTCTCTCTCTCTGTAATCCTTCGGAGTCACCTAGTGCAG”, for which the binding signal was 8040 fluorescence intensity (a.u.).
